# Laboratory results taken from PubChem BioAssay AID743255 (National Center for Advancing Translational Sciences (NCATS), 2014).
# Chains of the proteins cited; added tags and fusions are not shown. Lines headed by an entry give the natural chain unless they say otherwise; changes in a name come on top.
# UniProt O94782: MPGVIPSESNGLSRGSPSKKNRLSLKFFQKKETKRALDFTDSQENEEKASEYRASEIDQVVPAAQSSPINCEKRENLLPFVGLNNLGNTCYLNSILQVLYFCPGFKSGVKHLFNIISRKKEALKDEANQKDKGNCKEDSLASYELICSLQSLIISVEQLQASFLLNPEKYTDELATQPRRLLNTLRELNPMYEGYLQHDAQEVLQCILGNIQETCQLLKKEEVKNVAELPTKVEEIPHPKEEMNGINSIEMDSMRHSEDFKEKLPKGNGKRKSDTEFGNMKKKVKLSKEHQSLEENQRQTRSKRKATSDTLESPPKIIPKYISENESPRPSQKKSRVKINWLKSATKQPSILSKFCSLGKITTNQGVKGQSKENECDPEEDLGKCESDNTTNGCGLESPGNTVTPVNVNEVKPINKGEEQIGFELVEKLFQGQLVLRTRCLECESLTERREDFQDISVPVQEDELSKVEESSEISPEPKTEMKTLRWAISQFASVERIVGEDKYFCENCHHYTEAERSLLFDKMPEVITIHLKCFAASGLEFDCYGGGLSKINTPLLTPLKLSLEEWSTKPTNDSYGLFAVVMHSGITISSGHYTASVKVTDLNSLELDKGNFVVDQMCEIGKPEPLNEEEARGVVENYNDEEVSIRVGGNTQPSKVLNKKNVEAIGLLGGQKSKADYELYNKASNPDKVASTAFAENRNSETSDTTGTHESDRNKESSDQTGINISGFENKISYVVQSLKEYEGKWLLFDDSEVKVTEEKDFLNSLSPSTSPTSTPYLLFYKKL
# Screen size: about 390,000 compounds; about 910 (0.23%) were called active. Inconclusive results, whose numbers are uncertain, are shown with a selection of clear calls. Calls follow the shape of the dose curve; as a rule, active = well fitted inhibition curve with a large enough effect; inconclusive = small, poorly fitted or top-dose-only effect; inactive = no such curve, though single readings can be large or run the other way. Where the call is inconclusive, the potency comes from a doubtful curve fit.
# Molecular target: Ubiquitin carboxyl-terminal hydrolase 1 (Homo sapiens) (UniProt O94782)
# Test: Inhibitors of USP1/UAF1: Primary Screen; also: nearly all actives have a fitted effect of over 60% in size
# Conditions: recombinant USP1/UAF1, Ub-Rhodamine cleavage fluorescence; activity change, negative = inhibition: at 57.1 µM (top of the series)
# In short: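 Step one: compound is pinned into 1nM USP1/UAF1 in HEPES pH 7.8 buffer with TCEP. Step two: 15 min room-temperature incubation. Step three: Ub-Rho (150nM final) starts cleavage, tracked by fluorescence over six one-minute reads.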
# % is scaled to controls: 0 for no effect and ±100 for the full control effect; potency is read from the fitted curve at half-maximal effect.
SMILES,"activity change, negative = inhibition",Potency
NS(=O)(=O)c1cc(C(=O)N=Nc2c(O)[nH]c3ccccc23)ccc1Cl,inactive: -15.4%,–
COc1ccccc1CCNC(=O)Cc1c(C)c2c(O)cc(C)cc2oc1=O,–,"inconclusive: 5.01 µM [inhibitor, full curve, poor fit]"
CN(C)C(=O)CCc1ccc2c3c([nH]c2c1)[C@]1(CCc2ccccc2)[C@@H](C(=O)N2CCCCC2)C[C@H](CC(=O)NCCCn2ccnc2)C(=O)N1CC3,inactive: -14.3%,–
Nc1ccc(C(=O)O)cc1,–,"inconclusive: 100 µM [inhibitor, partial curve, poor fit]"
O=C(CSc1c2c(nc3ccccc13)CCC2)Nc1ccc(F)cc1F,inactive: -8.69%,–
CCOC(=O)c1c(NC(=O)C2CCCO2)sc(C(=O)OC(C)(C)C)c1C (configuration not stated),inactive: -9.57%,–
CCOC(=O)Cn1c(=O)oc2cc(S(=O)(=O)N3CCN(c4ccccn4)CC3)ccc21,–,"inconclusive: 44.7 µM [inhibitor, single point]"
S=c1[nH]nc(-c2ccco2)n1/N=C/c1ccc(Cl)c(Cl)c1,inactive: -3.64%,–
CN(Cc1ccc(C(C)(C)C)cc1)C(=O)c1ccc2c(=O)n3c(nc2c1)CCC3,–,"inconclusive: 39.8 µM [inhibitor, partial curve, poor fit]"
Cc1ccc(N=Cc2cc(Br)cc(Cl)c2O)cc1,–,"inconclusive: 25.1 µM [inhibitor, partial curve]"
CC1(C)CC(=O)c2cc(C(=O)Nc3ccc(Cl)cc3)c(=O)[nH]c2C1,–,"inconclusive: 7.94 µM [inhibitor, partial curve, poor fit]"
CC1CCCN(C2=C(Cl)C(=O)N(c3cccc(Cl)c3)C2=O)C1 (configuration not stated),inactive: -3.81%,–
O=[N+]([O-])c1cc(Cl)cc(/C=N/Nc2nc3ccccc3s2)c1O,inactive: -5.27%,–
COC(=O)c1c(NC(=O)C2c3ccccc3Oc3ccccc32)sc2c1CCC(C)C2 (configuration not stated),–,"inconclusive: 8.91 µM [inhibitor, partial curve, poor fit]"
COc1cccc(CNC(=O)CSc2cc(=O)n(C)c3ccccc23)c1,–,"inconclusive: 56.2 µM [inhibitor, partial curve, poor fit]"
Cn1c(SCCc2ccc([N+](=O)[O-])cc2)nccc1=O,inactive: -4.78%,–
C[C@@H]1CN([C@H](C)CO)C(=O)CCCn2cc(nn2)CO[C@H]1CN(C)C(=O)C1CC1,–,"inconclusive: 0.0891 µM [inhibitor, full curve, poor fit]"
O=S(=O)(Nc1cccc(Cl)c1)c1ccc(-n2cccn2)cc1,–,"inconclusive: 56.2 µM [inhibitor, partial curve, poor fit]"
Cc1cc2oc(C(=O)N3CCN(CCc4ccccn4)CC3)c(C)c2cc1C,–,"inconclusive: 50.1 µM [inhibitor, partial curve, poor fit]"
Cc1ccc(CSC2=Nc3ccccc3C3=NC(CCC(=O)NCCc4ccccc4)C(=O)N23)cc1 (configuration not stated),–,"inconclusive: 126 µM [inhibitor, partial curve, poor fit]"
O=C(c1cc(S(=O)(=O)N2CCOCC2)ccc1Cl)N1CCCCC1CO (configuration not stated),–,"inconclusive: 7.08 µM [inhibitor, single point]"
CC(=O)Nc1ccc(C(=O)Nc2nc(-c3cccnc3)cs2)cc1,–,"inconclusive: 6.31 µM [inhibitor, single point]"
Cc1cc(/C=C2\SC(=S)NC2=O)c(C)n1-c1ccc(O)cc1,inactive: -19.3%,–

SMILES,"activity change, negative = inhibition",Potency
C=CC[C@H](CC(=O)NCCO)C(=O)N[C@@H](COC(=O)[C@@H](CC=C)CC(=O)OC(C)(C)C)Cc1c[nH]c2ccccc12,–,"inconclusive: 5.01 µM [inhibitor, partial curve]"
O=[N+]([O-])c1ccc(-n2ccnc2)cc1,–,"inconclusive: 8.91 µM [inhibitor, single point]"
O=C(Nc1ccc(N2CCOCC2)cc1N1CCOCC1)c1ccc([N+](=O)[O-])cc1,inactive: -16.1%,–
Cc1cccc(C)c1NC(=O)COC(=O)c1ccc([N+](=O)[O-])o1,–,"inconclusive: 31.6 µM [inhibitor, partial curve]"
COc1ccc(O)c(/C=N/Nc2nc(C)cc(-c3ccccc3)n2)c1,–,"inconclusive: 25.1 µM [inhibitor, partial curve]"
Cc1ccc(Cl)cc1-n1c(=O)c2sc3ccccc3c2n(CC(=O)NC2CCCC2)c1=O,inactive: -25%,–
O=C(O)C1C2C=CC(O2)C1C(=O)Nc1ccccn1 (configuration not stated),–,"inconclusive: 7.08 µM [inhibitor, partial curve, poor fit]"
Cc1ccc(CCNC(=O)C2COc3ccccc3C2)cc1 (configuration not stated),–,"inconclusive: 4.47 µM [inhibitor, partial curve]"
CCOc1cc(CNc2ccccc2)cc(Br)c1OCc1ccccc1F,–,"inconclusive: 17.8 µM [inhibitor, partial curve]"
COc1ccc(NC(=O)N2CCC(CN3CCCC3)CC2)c(OC)c1,inactive: 5.35%,–
CN(C(=O)CSc1nnc(C2CC2)n1-c1ccccc1)C1CCS(=O)(=O)C1 (configuration not stated),inactive: -18.4%,–
COc1ccc2c(c1)OC13CCCCC1C2C(C(=O)c1ccccc1)C(=O)N3 (configuration not stated),–,"inconclusive: 0.251 µM [inhibitor, full curve, poor fit]"
COC(=O)CC1C(=O)NCCN1C(=S)Nc1ccccc1 (configuration not stated),inactive: -15%,–
Cc1cc(O)c(C(c2ccc(F)cc2)N2CCN(c3ccccc3)CC2)c(=O)n1Cc1ccco1 (configuration not stated),inactive: -14.5%,–
COc1ccc(-c2nc(SCC(=O)NCc3nc4ccccc4n3C)n3[nH]c(=O)cc3n2)cc1,–,"inconclusive: 3.55 µM [inhibitor, full curve]"
CCCCN1C(=O)C(NC(=O)c2ccc(C(C)(C)C)cc2)(C(F)(F)F)C(C(=O)OC)=C1C (configuration not stated),–,"inconclusive: 3.16 µM [inhibitor, full curve]"
C=CCNC(=O)c1onc(CSc2ccncc2)c1C(=O)NCC=C,–,"inconclusive: 0.0891 µM [inhibitor, full curve, poor fit]"
COc1ccc(NC(=O)C2CCN(c3nc4ccccc4[nH]3)CC2)cc1OC,–,"inconclusive: 0.282 µM [inhibitor, full curve, poor fit]"
N#CC1=C(N)NC(SCc2ccc(Cl)cc2)=C(C#N)C12CCCCC2,inactive: -2.02%,–
COc1ccc(NC(=O)c2c(NC(=O)c3cccc(C)c3)sc3c2CCC3)cc1,–,"inconclusive: 7.94 µM [inhibitor, partial curve, poor fit]"
O=C(O)CSc1cc(NS(=O)(=O)c2cccc([N+](=O)[O-])c2)c2ccccc2c1O,–,active: 17.8 µM
COc1ccc(/C=C2\SC(=S)N(CCCC(=O)Nc3cccc(C(=O)O)c3)C2=O)cc1OC,–,"inconclusive: 50.1 µM [inhibitor, partial curve, poor fit]"
COc1ccc(NC(=O)CSC2=Nc3ccccc3C3=NC(Cc4ccccc4)C(=O)N23)cc1 (configuration not stated),inactive: -26%,–

SMILES,"activity change, negative = inhibition",Potency
COc1ccc(OC)c(NC(=O)CCNS(=O)(=O)c2cccc3nonc23)c1,–,"inconclusive: 5.62 µM [inhibitor, single point]"
O=C(Nc1nc2cc3c(cc2s1)OCO3)c1ccco1,inconclusive: -12.2% [inhibitor],–
COc1ccccc1N(CC(=O)NC1CCCCC1)S(C)(=O)=O,–,"inconclusive: 5.62 µM [inhibitor, partial curve]"
CCOc1ccc(OCC)c(Nc2nc3ccccc3n3nnnc23)c1,–,"inconclusive: 0.794 µM [inhibitor, full curve, poor fit]"
O=C(NC(=S)Nc1ccc(-c2ccccc2)cc1)c1ccccc1,inactive: -12.2%,–
O=c1[nH]c2c(s1)C=Nc1ccccc1N2,–,active: 28.2 µM
CCN(CC)c1ccc(CNc2nc3ccccc3n2CCN2CCOCC2)cc1,inactive: -19.2%,–
CCOC(=O)Cn1c2ccccc2n2nc(CCC(=O)O)c(=O)nc12,–,"inconclusive: 8.91 µM [inhibitor, partial curve, poor fit]"
O=C(N/C(=C\c1ccco1)C(=O)N1CCOCC1)c1ccco1,–,"inconclusive: 50.1 µM [inhibitor, partial curve, poor fit]"
CCCc1cc(=O)oc2cc(C)c(CN3CCCC3)c(O)c12,–,"inconclusive: 39.8 µM [inhibitor, partial curve, poor fit]"
Cc1ccc(C(=O)NNC(=O)COc2ccc(Cl)cc2C)o1,inactive: 0.141%,–
CC1CCCCN1C(=O)CSc1nnc(-c2ccccc2Cl)o1 (configuration not stated),–,"inconclusive: 0.631 µM [inhibitor, full curve, poor fit]"
COc1ccc2[nH]c(=O)c(-c3noc(-c4ccccc4)n3)cc2c1,–,"inconclusive: 44.7 µM [inhibitor, partial curve, poor fit]"
CCOCN(C(=O)Cn1cnc2cc(C)c(C)cc21)c1c(C)cccc1CC,inactive: -15%,–
OC(CNCc1ccc(-c2ccccc2)cc1)c1ccccc1 (configuration not stated),inactive: -13.7%,–
CCc1ccccc1NC(=O)c1cc(-c2ccc3c(c2)OCO3)on1,–,"inconclusive: 0.398 µM [inhibitor, full curve, poor fit]"
COc1ccc(CNC(=O)CN2C(=O)COc3ccc(S(=O)(=O)N4CCOCC4)cc32)cc1,–,"inconclusive: 0.562 µM [inhibitor, full curve, poor fit]"
CC(C)OC(=O)N(C)C[C@H]1OCc2cnnn2CCCC(=O)N([C@H](C)CO)C[C@@H]1C,–,"inconclusive: 8.91 µM [inhibitor, partial curve, poor fit]"
Cc1cccc(N2CCN(C(=O)c3ccc4c(c3)c(C)c(C)n4C)CC2C)c1 (configuration not stated),–,"inconclusive: 0.316 µM [inhibitor, full curve, poor fit]"
COc1nc(-c2ccc(C)cc2)ccc1-c1noc(-c2ccc(C(C)(C)C)cc2)n1,inactive: -2.22%,–
Cc1cccc(NC(=O)c2ccc3c(=O)n4c(nc3c2)CCCCC4)n1,–,"inconclusive: 7.08 µM [inhibitor, full curve]"

# Part of the list above, as tab-separated lines.
SMILES	activity change, negative = inhibition	Potency
C[C@@H]1CN([C@H](C)CO)C(=O)CCCn2cc(nn2)CO[C@H]1CN(C)C(=O)C1CC1	–	inconclusive: 0.0891 µM [inhibitor, full curve, poor fit]
O=S(=O)(Nc1cccc(Cl)c1)c1ccc(-n2cccn2)cc1	–	inconclusive: 56.2 µM [inhibitor, partial curve, poor fit]
Cc1cc2oc(C(=O)N3CCN(CCc4ccccn4)CC3)c(C)c2cc1C	–	inconclusive: 50.1 µM [inhibitor, partial curve, poor fit]
